Results on one molecule are retold here after patent US20220098323A1 (US Dept. of Health and Human Services, published 2022).

Results are given in words; binding and its absence hold for the method and conditions named. Some binding calls cover weakened binding; strength is not graded here.

The experiment addresses T1, cell-surface GPC1 on GPC1-expressing tumor cells (2B9 KLM, H8, T3M4) (UniProt P35052).
T1 sequence (looked up): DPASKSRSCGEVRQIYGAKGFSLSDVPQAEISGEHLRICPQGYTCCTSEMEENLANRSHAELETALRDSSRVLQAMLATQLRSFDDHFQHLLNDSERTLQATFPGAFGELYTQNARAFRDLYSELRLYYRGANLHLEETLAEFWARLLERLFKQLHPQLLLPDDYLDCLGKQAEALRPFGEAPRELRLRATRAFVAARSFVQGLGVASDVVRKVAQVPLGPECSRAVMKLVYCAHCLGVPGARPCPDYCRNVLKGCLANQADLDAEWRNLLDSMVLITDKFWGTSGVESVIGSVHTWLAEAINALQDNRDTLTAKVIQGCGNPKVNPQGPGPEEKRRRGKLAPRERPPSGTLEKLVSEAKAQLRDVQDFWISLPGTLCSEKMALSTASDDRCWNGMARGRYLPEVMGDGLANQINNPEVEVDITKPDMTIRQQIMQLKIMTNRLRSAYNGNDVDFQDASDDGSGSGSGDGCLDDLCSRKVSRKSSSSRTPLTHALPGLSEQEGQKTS
Kind of experiment: flow cytometry on cells, D4 at 5 ug/ml. For orientation: Flow cytometry measures light scatter and fluorescence of single cells or particles in a stream.

B1: camel single-domain antibody D4 (VHH)
VHH: QVQLVESGGGLVQPGGSLRLSCVASGYSYSIGYMAWFRQAPGKERAWVASRYTGDGGAVFDDAVKGRFTTSQESAGNTFDLQMDSLKPEDTAMYYCAAKGPGFGRWEYWGRGTQVTVSS
notes: also called D4 antibody; VHH antibody D4
With B1, the binding result is “binds”.
